Drawing on PMC10449177, this text covers binding for one substance.

Protein sequences, listed by entry. Tags and fused reporters are not part of them.
UniProt P25106: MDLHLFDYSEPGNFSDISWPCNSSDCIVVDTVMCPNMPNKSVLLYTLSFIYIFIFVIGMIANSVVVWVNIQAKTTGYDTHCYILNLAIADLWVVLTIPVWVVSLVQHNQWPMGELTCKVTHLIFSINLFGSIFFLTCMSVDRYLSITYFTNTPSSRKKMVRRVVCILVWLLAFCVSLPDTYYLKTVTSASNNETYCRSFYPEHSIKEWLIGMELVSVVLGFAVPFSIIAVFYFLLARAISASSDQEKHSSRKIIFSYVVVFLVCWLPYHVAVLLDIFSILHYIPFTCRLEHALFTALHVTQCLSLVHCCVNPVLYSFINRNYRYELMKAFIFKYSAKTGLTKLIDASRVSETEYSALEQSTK

The assay concerns the target T1, Macrophage migration inhibitory factor (human (endogenous in H1 and H9 human ESCs)) (UniProt P14174).
T1 sequence: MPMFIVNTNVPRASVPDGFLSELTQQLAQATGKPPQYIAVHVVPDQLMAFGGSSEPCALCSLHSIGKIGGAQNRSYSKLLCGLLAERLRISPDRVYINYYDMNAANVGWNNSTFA
Description: co-IP; endogenous proteins in human ESC lysate (IP lysis buffer); 2 ug antibody (MIF antibody, or CXCR7 antibody for the reverse IP) with protein A/G beads overnight at 4°C; washed three times; Western blot; IgG as negative control.

No constants are given. Whether binding was seen depends on the method and setting. Binding seen in cells or lysates may run through a third protein. Some entries that bind do so weakly or less than the wild type.

On to “CXCR7 (from UniProt P25106 1-362) (receptor)”, for which the binding entry is on record as “binds”.
